# Assay results as given in PubChem BioAssay AID540256 (National Center for Advancing Translational Sciences (NCATS), 2011).
# In all, about 300,000 compounds went through this assay and about 3,700 (1.2%) were called active. The shares of active, inactive and inconclusive entries below differ from those in the screen. The call rests on the fitted dose curve; tested in HEK293 cells. Where the call is inconclusive, the potency comes from a doubtful curve fit.
# Assay: qHTS for Inhibitors of binding or entry into cells for Lassa Virus; further: nearly all actives have a fitted effect of over 50% in size
# Conditions: Lassa virus pseudotype entry inhibition, cell reporter; series mostly up to 37.9 µM
# Potency means the concentration at half of the fitted maximal effect.
row,SMILES,Potency
1,CCOC(=O)C1(c2csc(N)n2)COC(=O)C1 (configuration not stated),"inconclusive: 3.26 µM [activator, full curve, poor fit]"
2,O=c1[nH]c(=S)n(C2CC2)c(O)c1/C=N/Nc1ccccc1,"inconclusive: 20 µM [inhibitor, single point]"
3,O=C(CSc1nc2ccccc2c(=O)n1Cc1ccco1)N1CCN(c2ccccc2)CC1,"inconclusive: 29.1 µM [inhibitor, single point]"
4,CN=c1scc(-c2ccc([N+](=O)[O-])cc2)n1/N=C/c1ccco1,inactive
5,CC1CCN(S(=O)(=O)Cc2ccccc2Cl)CC1,"inconclusive: 6.31 µM [activator, single point]"
6,O=C(Nc1ccc2c(c1)OCCO2)c1ccccc1,"inconclusive: 10 µM [inhibitor, partial curve, poor fit]"
7,O=C(c1ccco1)c1nnn(Cc2ccccc2)c1-c1ccccc1,"inconclusive: 3.26 µM [inhibitor, full curve]"
8,O=[N+]([O-])c1cc(S(=O)(=O)Nc2ccccc2)ccc1N1CCN(c2ccccc2)CC1,"inconclusive: 22.4 µM [inhibitor, single point]"
9,Cc1ccccc1NC(=S)NC(NC(=O)c1ccccc1C)C(Cl)(Cl)Cl (configuration not stated),"inconclusive: 2.59 µM [inhibitor, partial curve]"
10,CCOC(=O)N1CCN(C(=O)c2cn(CC)c3ccc(S(=O)(=O)N4CCCC4)cc3c2=O)CC1,"inconclusive: 25.9 µM [activator, single point]"
11,NC(=O)NOCc1ccc(Cl)cc1Cl,"inconclusive: 7.08 µM [inhibitor, partial curve, poor fit]"
12,COc1ccccc1NC(=O)COC(=O)C1CC2C=CC1C2 (configuration not stated),"inconclusive: 3.16 µM [inhibitor, partial curve, poor fit]"
13,COc1ccc(-c2c(C#N)c(SCC(=O)Nc3ccccc3C)nc(C)c2C(=O)Nc2ccc(Cl)cc2)cc1,"inconclusive: 6.31 µM [inhibitor, single point]"
14,CN(c1ccccc1)S(=O)(=O)c1ccc(NC(=O)c2nc(S(C)(=O)=O)ncc2Cl)cc1,"inconclusive: 35.5 µM [inhibitor, single point]"
15,Cc1nc2nc(C)n(CCN3CCOCC3)c(=O)c2c(-c2cccc([N+](=O)[O-])c2)c1C(=O)CCCCCCCCCCN1CCC(c2ccccc2)(c2ccccc2)CC1,"inconclusive: 22.4 µM [inhibitor, single point]"
16,C=C(C(C)=O)C(O)c1ccc([N+](=O)[O-])cc1 (configuration not stated),"inconclusive: 7.5 µM [inhibitor, single point]"
17,O=C1C=C(N2CCN(C(=O)c3ccccc3)CC2)C2(CCCCC2)O1,inactive
18,CC(C)CCOc1ccc(C(=O)Nc2sc3c(c2C#N)CCCCC3)cc1,"inconclusive: 3.16 µM [activator, partial curve, poor fit]"
19,O=c1[nH]c(-c2ccccc2)nc(CN2CCCCC2)c1O,inactive
20,COc1cc(/C=C/c2cc(C(F)(F)F)[nH]c(=O)n2)cc(OC)c1OC,"inconclusive: 10 µM [inhibitor, partial curve, poor fit]"
21,CCOc1ccc(NC(=O)Nc2nnc(CC(=O)NCc3ccccc3)s2)cc1,"inconclusive: 12.6 µM [inhibitor, single point]"
22,O=C(Cc1cccs1)Nc1nnc(-c2ccncc2)s1,"inconclusive: 2.06 µM [activator, full curve]"
23,COc1cccc(-c2nc(-c3ccc(-c4ccccc4)nc3OC)no2)c1,inactive

# A different layout for 16 compounds above.
row | SMILES | Potency
1 | CCOC(=O)C1(c2csc(N)n2)COC(=O)C1 (configuration not stated) | inconclusive: 3.26 µM [activator, full curve, poor fit]
2 | O=c1[nH]c(=S)n(C2CC2)c(O)c1/C=N/Nc1ccccc1 | inconclusive: 20 µM [inhibitor, single point]
3 | O=C(CSc1nc2ccccc2c(=O)n1Cc1ccco1)N1CCN(c2ccccc2)CC1 | inconclusive: 29.1 µM [inhibitor, single point]
5 | CC1CCN(S(=O)(=O)Cc2ccccc2Cl)CC1 | inconclusive: 6.31 µM [activator, single point]
6 | O=C(Nc1ccc2c(c1)OCCO2)c1ccccc1 | inconclusive: 10 µM [inhibitor, partial curve, poor fit]
7 | O=C(c1ccco1)c1nnn(Cc2ccccc2)c1-c1ccccc1 | inconclusive: 3.26 µM [inhibitor, full curve]
9 | Cc1ccccc1NC(=S)NC(NC(=O)c1ccccc1C)C(Cl)(Cl)Cl (configuration not stated) | inconclusive: 2.59 µM [inhibitor, partial curve]
10 | CCOC(=O)N1CCN(C(=O)c2cn(CC)c3ccc(S(=O)(=O)N4CCCC4)cc3c2=O)CC1 | inconclusive: 25.9 µM [activator, single point]
11 | NC(=O)NOCc1ccc(Cl)cc1Cl | inconclusive: 7.08 µM [inhibitor, partial curve, poor fit]
12 | COc1ccccc1NC(=O)COC(=O)C1CC2C=CC1C2 (configuration not stated) | inconclusive: 3.16 µM [inhibitor, partial curve, poor fit]
13 | COc1ccc(-c2c(C#N)c(SCC(=O)Nc3ccccc3C)nc(C)c2C(=O)Nc2ccc(Cl)cc2)cc1 | inconclusive: 6.31 µM [inhibitor, single point]
14 | CN(c1ccccc1)S(=O)(=O)c1ccc(NC(=O)c2nc(S(C)(=O)=O)ncc2Cl)cc1 | inconclusive: 35.5 µM [inhibitor, single point]
17 | O=C1C=C(N2CCN(C(=O)c3ccccc3)CC2)C2(CCCCC2)O1 | inactive
19 | O=c1[nH]c(-c2ccccc2)nc(CN2CCCCC2)c1O | inactive
20 | COc1cc(/C=C/c2cc(C(F)(F)F)[nH]c(=O)n2)cc(OC)c1OC | inconclusive: 10 µM [inhibitor, partial curve, poor fit]
23 | COc1cccc(-c2nc(-c3ccc(-c4ccccc4)nc3OC)no2)c1 | inactive

# Remaining list, next part

row,SMILES,Potency
1,Cc1ccccc1-c1nc(CNC(=O)Nc2ccccc2)c(C)o1,inactive
2,COc1ccnc(Oc2ccc(C)cc2)c1C#N,"inconclusive: 32.6 µM [activator, single point]"
3,CCN(CCNC(=O)CN1CCN(Cc2ccc(Cl)cc2)C1=O)c1ccccc1,"inconclusive: 11.2 µM [inhibitor, single point]"
4,Cc1ccc(N2CC(C(=O)Nc3ccc(S(=O)(=O)NCC4CCCO4)cc3)CC2=O)cc1C (configuration not stated),inactive
5,O=C(O)c1ccc(CSc2nc3ccccc3o2)cc1,inactive
6,COc1ccc(NC(=O)Cn2cnc3sc(C)c(S(=O)(=O)N4CCN(C)CC4)c3c2=O)cc1OC,"inconclusive: 11.2 µM [activator, partial curve, poor fit]"
7,Cc1ccc(C)c(NC(=O)Cn2cc(C(=O)c3ccncc3)c(=O)c3cc(F)ccc32)c1,"inconclusive: 35.5 µM [activator, single point]"
8,Cc1ccc(OCc2ccc(C(=O)NCc3cccnc3)cc2)cc1C,active: 7.94 µM
9,CCOc1ccc(CNC(=O)c2cc3oc4ccccc4c3n2C)cc1,"inconclusive: 3.55 µM [inhibitor, full curve, poor fit]"
10,O=C(N/N=C/c1ccccn1)c1ccc(Cl)cc1,"inconclusive: 10 µM [inhibitor, partial curve, poor fit]"
11,CCOC(=O)c1c(C)[nH]c(N=Nc2ccccc2C)c1C,"inconclusive: 32.6 µM [inhibitor, single point]"
12,Cc1c(Cl)ccc2sc(N3CCN(C(=O)c4ccco4)CC3)nc12,inactive
13,COc1cccc(-n2cc(CN(C)Cc3nc(Cc4ccccc4)no3)cn2)c1,"inconclusive: 3.55 µM [inhibitor, single point]"
14,CC(C)(C)C(=O)COC(=O)c1cccc(NC(=O)c2ccco2)c1,inactive
15,O=C(CSc1nnc(-c2cnccn2)n1Cc1ccco1)c1ccc(Cl)cc1,inactive
16,CCOC(=O)N1CCN(C(=O)CN(c2cccc(Cl)c2C)S(=O)(=O)c2ccc(C)cc2)CC1,"inconclusive: 11.2 µM [inhibitor, single point]"
17,C=CCOc1ccc(/C=C/C(=O)OCC(=O)NC(C)c2ccc(F)cc2)cc1 (configuration not stated),"inconclusive: 11.2 µM [inhibitor, partial curve, poor fit]"
18,Cc1ccc(NC(=O)CN(C)C(=O)Cc2ccc(Cl)cc2Cl)cc1,"inconclusive: 7.94 µM [inhibitor, partial curve, poor fit]"
19,COC(=O)/C(=C/c1ccc2c(c1)c1ccccc1n2C)NC(=O)c1ccccc1,"inconclusive: 0.891 µM [inhibitor, partial curve, poor fit]"
20,Cc1cc(/C=C(\C#N)C(=O)Nc2ccc(Cl)cc2)c(C)n1-c1ccc(N2CCOCC2)c([N+](=O)[O-])c1,"inconclusive: 1.26 µM [inhibitor, single point]"
21,COc1ccc(-c2cn(-c3ccccc3)c3[n+]2CCS3)cc1,"inconclusive: 0.146 µM [inhibitor, full curve, poor fit]"
22,Cc1cc(O)cc(C)c1C=Cc1cncc(C(=O)N(C)C)c1,"inconclusive: 12.5 µM [inhibitor, partial curve, poor fit]"
23,Cc1cc(=O)[nH]c(SCc2cn3ccccc3n2)n1,"inconclusive: 5.62 µM [activator, partial curve, poor fit]"

row,SMILES,Potency
1,CCOc1ccc(C(=O)NCCn2cc(SCC(=O)NCCc3ccc(OC)c(OC)c3)c3ccccc32)cc1,"inconclusive: 7.08 µM [inhibitor, full curve, poor fit]"
2,Cc1cccc(C(=O)NNC2=C(C(=O)C(F)(F)F)CCC2)c1O,"inconclusive: 35.5 µM [inhibitor, single point]"
3,Cn1c(=O)c2c(nc(SCCN3CCCCC3)n2Cc2ccc(Cl)cc2)n(C)c1=O,"inconclusive: 23.1 µM [inhibitor, partial curve, poor fit]"
4,CCOc1ccc(C(=O)N/N=C(\c2ccccc2)c2ccccn2)cc1,active: 7.08 µM
5,CCCCC(=O)Nc1nnn(CCC)n1,inactive
6,COCCCn1c(SCC(=O)NC2CCCCC2)nnc1-c1ccncc1,inactive
7,CC(C)(CO)NC(=O)CCCOc1ccc(Cl)cc1Cl,"inconclusive: 7.3 µM [activator, partial curve, poor fit]"
8,Cc1ccccc1NC(=O)CSc1nnc(-c2ccccc2)n1-c1ccccc1,"inconclusive: 35.5 µM [inhibitor, single point]"
9,O=C(O)COc1cccc(NC(=O)C2CCCO2)c1 (configuration not stated),inactive
10,CC(=O)Nc1cccc(C(=O)OC(C)C(=O)N2CCc3ccccc32)c1 (configuration not stated),inactive
11,Cc1cccc(C)c1NC(=O)CN1C(=O)S/C(=C\c2cccn2-c2cccc(C(=O)O)c2)C1=O,inactive
12,NC(=O)C1=NOC(CNc2ncc(C(F)(F)F)cc2Cl)C1 (configuration not stated),"inconclusive: 3.55 µM [activator, single point]"
13,COc1ccc(-c2nnc(SCC(=O)NCc3ccco3)n2C)cc1,inactive
14,O=C(CC(Nc1ccccc1)C(=O)O)c1ccccc1 (configuration not stated),"inconclusive: 1.26 µM [inhibitor, single point]"
15,O=C(O)Cc1coc2cc3c(cc12)CCC3,"inconclusive: 35.5 µM [inhibitor, single point]"
16,c1cncc(-c2noc(CC3CCCCC3)n2)c1,inactive
17,CCC1CN(C(=O)N2CCC(C(=O)NCc3ccc(OC)cc3OC)CC2)c2cc(C)ccc2O1 (configuration not stated),"inconclusive: 20 µM [inhibitor, partial curve, poor fit]"
18,CCOc1ccc(S(=O)(=O)N2CCN(C(=O)c3cc(S(=O)(=O)N4CCOCC4)ccc3C)CC2)cc1,inactive
19,Cc1ccc(C2Nc3ccccc3-n3c(-c4ccccc4)c4c(=O)n(C)c(=O)n(C)c4c32)o1 (configuration not stated),inactive
20,Cc1[nH]c2ccccc2c1N=Nc1ccccc1C(=O)O,"inconclusive: 20.6 µM [activator, single point]"
21,COc1ccc(/C=N/Nc2nccnc2Cl)c(OC)c1,"inconclusive: 35.5 µM [inhibitor, single point]"
